These are yes or no findings as the source states them, for the method shown. Binding seen in cells or lysates may run through a third protein. Some entries that bind do so weakly or less than the wild type. Sequences can lack the tags named with a protein.
Target: T1, Ubiquitin specific protease 21 (HA-USP21) (UniProt Q9UK80)
T1 sequence: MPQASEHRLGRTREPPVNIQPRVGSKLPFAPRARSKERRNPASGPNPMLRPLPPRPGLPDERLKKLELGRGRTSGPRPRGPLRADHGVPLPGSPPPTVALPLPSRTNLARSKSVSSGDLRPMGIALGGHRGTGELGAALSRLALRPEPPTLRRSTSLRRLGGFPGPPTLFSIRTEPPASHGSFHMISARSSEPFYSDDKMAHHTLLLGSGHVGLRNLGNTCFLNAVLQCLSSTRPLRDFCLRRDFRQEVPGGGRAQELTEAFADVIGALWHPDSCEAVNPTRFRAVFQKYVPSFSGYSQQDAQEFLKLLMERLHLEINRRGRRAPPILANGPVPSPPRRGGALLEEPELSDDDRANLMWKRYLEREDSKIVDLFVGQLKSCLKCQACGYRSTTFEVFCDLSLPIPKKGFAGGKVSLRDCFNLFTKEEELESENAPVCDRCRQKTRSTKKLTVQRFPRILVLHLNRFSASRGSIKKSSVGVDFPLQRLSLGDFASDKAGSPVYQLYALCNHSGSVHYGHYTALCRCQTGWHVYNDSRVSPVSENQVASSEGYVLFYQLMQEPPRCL
Test: co-IP; HEK293T cotransfected with HA-USP21 and Myc-STAT3 for 48 h; lysis buffer 50 mM Tris-HCl pH 7.5, 150 mM NaCl, 0.5% NP40, 1 mM DTT, 10 mM NEM; whole cell lysates incubated overnight at 4 °C with anti-HA beads; three washes; immunoblotting

The chains behind the UniProt entries cited, without tags or fusion partners.
UniProt P40763: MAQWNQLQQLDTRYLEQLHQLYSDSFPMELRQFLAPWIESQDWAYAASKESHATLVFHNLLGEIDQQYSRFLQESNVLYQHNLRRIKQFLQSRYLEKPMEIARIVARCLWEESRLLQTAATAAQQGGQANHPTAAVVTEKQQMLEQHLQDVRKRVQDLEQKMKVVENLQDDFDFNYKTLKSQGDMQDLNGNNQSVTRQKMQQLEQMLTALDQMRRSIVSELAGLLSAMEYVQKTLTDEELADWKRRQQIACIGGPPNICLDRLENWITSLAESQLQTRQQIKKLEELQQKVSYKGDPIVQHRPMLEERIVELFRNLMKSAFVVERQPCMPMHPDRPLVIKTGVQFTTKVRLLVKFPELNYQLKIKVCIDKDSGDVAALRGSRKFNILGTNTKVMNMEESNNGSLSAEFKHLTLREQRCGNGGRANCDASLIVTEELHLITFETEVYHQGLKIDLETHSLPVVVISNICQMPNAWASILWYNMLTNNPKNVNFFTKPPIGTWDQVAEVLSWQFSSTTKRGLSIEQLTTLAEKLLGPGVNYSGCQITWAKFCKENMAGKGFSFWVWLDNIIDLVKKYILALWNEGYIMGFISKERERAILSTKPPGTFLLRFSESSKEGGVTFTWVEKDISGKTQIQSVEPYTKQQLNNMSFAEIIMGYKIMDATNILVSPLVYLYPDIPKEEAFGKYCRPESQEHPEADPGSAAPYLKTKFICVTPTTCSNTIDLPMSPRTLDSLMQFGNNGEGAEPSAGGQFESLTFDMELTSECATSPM

With “Signal transducer and activator of transcription 3 (Myc-STAT3) (from UniProt P40763 1-770)” the binding was “binds”.

From publication PMC11513602
